Experimental data published in patent US20070275985A1, “Triazolopyrimidines” (Bayer Cropscience Aktiengesellschaft, priority 2003, published 2007).
Some of these results come from one statement about several compounds together. For at least one compound, name, drawing or mass did not settle the structure.

How the values were obtained:
Format in all cases: in vivo
Podosphaera leucotricha = assay: Podosphaera test (apple)/protective; settings: protective, 100 g/ha, assessment 10 days after inoculation
Sphaerotheca fuliginea = assay: Sphaerotheca test (cucumber)/protective; settings: protective, 750 g/ha, assessment 7 days after inoculation
Venturia inaequalis = assay: Venturia test (apple)/protective; settings: protective, 100 g/ha, assessment 10 days after inoculation
Botrytis cinerea = assay: Botrytis test (bean)/protective; settings: protective, 500 g/ha, assessment two days after inoculation

Compound: C[C@@H](Nc1c(-c2ncncc2Cl)c(Cl)nc2ncnn12)C(F)(F)F [Example 8]
- efficiency (Podosphaera leucotricha): higher than 90%
- efficiency (Sphaerotheca fuliginea): higher than 90%

Compound: C[C@H](Nc1c(-c2ncncc2Cl)c(Cl)nc2ncnn12)C(F)(F)F [Example 2, N-[5-chloro-6-(5-chloro-4-pyrimidinyl)[1,2,4]triazolo[1,5-a]pyrimidin-7-yl]-N-[(1S)-2,2,2-trifluoro-1-methylethyl]amine]
- efficiency (Podosphaera leucotricha): higher than 90%
- efficiency (Venturia inaequalis): higher than 90%
- efficiency (Botrytis cinerea): higher than 90%
- efficiency (Sphaerotheca fuliginea): higher than 90%

Compound: C[C@H](Nc1c(-c2ncccc2C(F)(F)F)c(Cl)nc2ncnn12)C(F)(F)F [Example 1, N-{5-chloro-6-[3-(trifluoromethyl)-2-pyridinyl][1,2,4]triazolo[1,5-a]pyrimidin-7-yl}-N-[(1 S)-2,2,2-trifluor-1-methylethyl]amine]
- efficiency (Podosphaera leucotricha): higher than 90%

Compound: CC(C)C(C)Nc1c(-c2ncccc2C(F)(F)F)c(Cl)nc2ncnn12 (centres unmarked) [Example 11]
- efficiency (Podosphaera leucotricha): higher than 90%

Compound: CC(C)C(C)Nc1c(-c2ncncc2Cl)c(Cl)nc2ncnn12 (centres unmarked) [Example 13]
- efficiency (Podosphaera leucotricha): higher than 90%
- efficiency (Venturia inaequalis): higher than 90%
- efficiency (Botrytis cinerea): higher than 90%
